Test results reported in PubChem BioAssay AID493014 (National Center for Advancing Translational Sciences (NCATS), 2011).
This is one part of the list. These are further read-outs of the screen, such as a control signal, another cell line or another target. No call is given for them. Most of these compounds were active or inconclusive in the main read-out, so they are no random draw. Potencies come from curve fits of mixed quality, noted in brackets.

Assay: qHTS Assay to Find Inhibitors of Chronic Active B-Cell Receptor Signaling
Settings: ABC-DLBCL IkBa-CBG/CBR reporter, luminescence ratio (green luciferase fused to IkBa over red control in TMD8 lymphoma cells), 4 h
Method in brief: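 Concentration-response series (up to 46 uM) were applied to TMD8 dual-reporter cells for 4 h at 37C with doxycycline. Green/red ratio, after filter-overlap correction, defined %Activity; red signal alone was normalised to basal cells and zero luminescence.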

[1] = measured here: CBR red luminescence, cell number
[2] = measured here: IkBa-CBG green luminescence

Row | SMILES | AC50 [1] | AC50 [2]
1 | Cc1cc(NC(=O)c2cc(-c3ccc(O)cc3)on2)no1 | 10 µM [falling, partial curve, poor fit] | –
2 | O=C(c1ccsc1)N1CCCC(N2CCN(c3ccccc3F)CC2)C1 (centres undefined) | 17.8 µM [falling, partial curve, poor fit] | –
3 | CCOc1ccc(Nc2nc3c(c(=O)[nH]2)CCCC3)cc1 | 25.9 µM [rising, single point] | –
4 | COc1ccc(/C=C/c2nc(-c3ccccc3)cc(=O)[nH]2)cc1 | 35.5 µM [rising, single point] | –
5 | Cc1cc2oc(=O)cc(CN3CCCCC3)c2cc1C | 6.31 µM [rising, single point] | –
6 | O=C(NCCCN1CCOCC1)c1ccc2c(c1)N(Cc1c(F)cccc1Cl)C(=O)c1ccccc1S2 | 15.8 µM [falling, single point] | –
7 | CC(C)COc1ccc(/C(=N/O)c2ccccc2)cc1 | 13 µM [rising, partial curve] | 23.1 µM [falling, single point]
8 | CCOC(=O)c1cnc(SCC(=O)N2CCc3ccccc32)nc1N | 29.1 µM [rising, single point] | –
9 | COc1ccc(C(=O)NCCNc2nc3ccc(C)cc3cc2C#N)cc1 | 3.98 µM [falling, single point] | –
10 | COc1cccc(C(=O)Nc2cc(NC(=O)c3cccs3)ccc2C)c1OC | 1.58 µM [rising, full curve, poor fit] | 6.31 µM [falling, partial curve, poor fit]
11 | Cc1ccc(-n2ncc3c(Nc4ccc(Oc5ccccc5)cc4)ncnc32)c(C)c1 | 10 µM [rising, partial curve, poor fit] | –
12 | Oc1ccccc1-c1nc2cnccn2c1Nc1ccc2c(c1)OCCO2 | 6.51 µM [rising, single point] | –
13 | [O-]/C(=C(\C(=S)Nc1cccc2ccccc12)[n+]1ccccc1)c1ccc2c(c1)OCCO2 | 32.6 µM [falling, single point] | –
14 | Cc1cnc(CN2CCCC(C(=O)c3ccc4c5c(cccc35)CC4)C2)[nH]1 (centres undefined) | 22.4 µM [falling, single point] | –
15 | COc1ccc(N2CCC(CNS(=O)(=O)c3cccc(C(F)(F)F)c3)C2)cc1 (centres undefined) | 1.16 µM [falling, full curve] | –
16 | OCC#CCSc1nnc(-c2ccccc2Br)o1 | 3.66 µM [falling, partial curve, poor fit] | –
17 | COc1cc(/C=N/N=C(/N)c2nonc2N)cc(Br)c1OCc1cccc(C)c1 | 8.2 µM [rising, partial curve, poor fit] | –

An excerpt from above in order of SMILES length, falling:
Row | SMILES | AC50 [1] | AC50 [2]
13 | [O-]/C(=C(\C(=S)Nc1cccc2ccccc12)[n+]1ccccc1)c1ccc2c(c1)OCCO2 | 32.6 µM [falling, single point] | –
9 | COc1ccc(C(=O)NCCNc2nc3ccc(C)cc3cc2C#N)cc1 | 3.98 µM [falling, single point] | –
1 | Cc1cc(NC(=O)c2cc(-c3ccc(O)cc3)on2)no1 | 10 µM [falling, partial curve, poor fit] | –
